From PubChem BioAssay AID1671190 (National Center for Advancing Translational Sciences (NCATS), 2021)
About 6,100 (1.1%) of roughly 580,000 compounds were called active. The inconclusive results got no clear call from the source; some entries with a clear call stand among them for comparison. Calls follow the shape of the dose curve; as a rule, active = well fitted inhibition curve with a large enough effect; inconclusive = small, poorly fitted or top-dose-only effect, or another doubt; inactive = no such curve, though single readings can be large or run the other way. Potencies beside an inconclusive call are fits to weak or partial responses and may not hold up.

Amino acid sequences for entries named in this document (tags omitted).
UniProt P18054, whole entry, looked up: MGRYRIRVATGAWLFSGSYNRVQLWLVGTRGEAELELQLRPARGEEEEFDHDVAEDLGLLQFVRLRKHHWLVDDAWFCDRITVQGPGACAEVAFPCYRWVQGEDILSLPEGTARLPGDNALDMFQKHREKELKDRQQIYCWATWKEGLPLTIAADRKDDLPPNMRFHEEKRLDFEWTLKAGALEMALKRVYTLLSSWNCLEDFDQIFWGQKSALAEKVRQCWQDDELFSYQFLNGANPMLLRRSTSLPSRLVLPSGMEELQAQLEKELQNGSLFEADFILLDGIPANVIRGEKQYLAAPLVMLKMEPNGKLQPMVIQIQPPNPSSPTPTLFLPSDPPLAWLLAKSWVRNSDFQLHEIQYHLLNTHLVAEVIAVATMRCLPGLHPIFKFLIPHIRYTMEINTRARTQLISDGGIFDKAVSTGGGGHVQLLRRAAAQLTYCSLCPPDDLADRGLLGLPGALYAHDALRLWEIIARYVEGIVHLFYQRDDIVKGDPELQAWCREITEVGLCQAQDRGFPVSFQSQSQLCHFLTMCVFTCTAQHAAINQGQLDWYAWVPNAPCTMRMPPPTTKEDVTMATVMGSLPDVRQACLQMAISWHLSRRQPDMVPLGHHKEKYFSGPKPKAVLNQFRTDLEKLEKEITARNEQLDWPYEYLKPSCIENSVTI

Molecular target: Polyunsaturated fatty acid lipoxygenase ALOX12 (Homo sapiens) (UniProt P18054)
Test: Primary qHTS assay for inhibitors of human arachidonate 12S-lipoxygenase (ALOX12): Round 2
Conditions: purified 12hLO, xylenol orange hydroperoxide absorbance; activity change, negative = inhibition: at 108 µM (top of the series) unless noted
Procedure, shortened: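 Hydroperoxide product was detected by ferrous iron/xylenol orange as the 573 to 405 nm absorbance ratio. Arachidonic acid at 40 uM (final) was turned over for 30 min at room temperature by 150 nM human 12hLO, pH 7.0 Hepes buffer, after 15 min compound preincubation.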
% is scaled to controls: 0 for no effect and ±100 for the full control effect; potency is read from the fitted curve at half-maximal effect.

Structure (SMILES)	Potency	activity change, negative = inhibition
COc1ccc(-c2c(C(F)(F)F)[nH]n3c(=O)cc(-c4ccccc4)nc23)cc1	active: 11.2 µM	
O=C(c1ccco1)N1CCN(Cc2cccc3ccccc23)CC1	inconclusive: 3.16 µM [inhibitor, full curve]	
O=C(Nc1ccc(N2CCN(c3ccc(F)cc3)CC2)c(C(=O)O)c1)c1cccs1		inactive: -24.6%
CCCCOc1ccc(C(=O)NCCc2sc3nc(-c4ccc(OC)cc4)nn3c2C)cc1	inconclusive: 141 µM [inhibitor, partial curve, poor fit]	
CCOC(=O)CC1(NC(=O)C2CCC(=O)N(CCc3ccc(OC)cc3)C2)CCCCC1 (centres undefined)		inactive: 5.07%
Cc1ccc(NC(=O)/C=C/c2ccco2)cc1F	inconclusive: 100 µM [inhibitor, single point]	
O=C(NCc1ccc(Cl)cc1)C1CCC(CNS(=O)(=O)c2ccccc2)CC1 (centres undefined)	inconclusive: 0.708 µM [inhibitor, single point]	
Cc1nnc(SCC(=O)NC(=O)NC(C)(C)C)n1N		inactive: 0%
COCCCNCC(=O)c1c(N)n(Cc2ccccc2)c(=O)n(C)c1=O	inconclusive: 50.1 µM [inhibitor, partial curve, poor fit]	
CC(=O)Nc1ccc(NCc2ccc(-c3ccccc3)cc2)cc1		inactive: 30.1%
COCCCNc1oc(/C=C/c2cccc(OC)c2)nc1C#N	inconclusive: 2.24 µM [inhibitor, full curve, poor fit]	
C=CCSc1nnc(CSc2nc3sc4c(c3c(=O)[nH]2)CCCC4)n1-c1ccccc1	inconclusive: 39.8 µM [inhibitor, partial curve, poor fit]	
CCc1ccccc1NC(=O)C1C2C=CC(O2)C1C(=O)O (centres undefined)	inconclusive: 79.4 µM [inhibitor, single point]	
CCOc1ccc(N(Cc2ccccc2)C(=O)c2nc(SC)ncc2Cl)cc1	inconclusive: 141 µM [inhibitor, partial curve, poor fit]	
CSc1ccc(/C=[N+](/[O-])c2ccccc2)cc1	inconclusive: 25.1 µM [inhibitor, partial curve, poor fit]	
c1cnc2ccc(-n3ccnc3)cc2c1		inactive: 5.34%
CCOc1ccc(-n2cnc3scc(-c4ccc(Br)cc4)c3c2=O)cc1		inactive: -5.98%
C[C@@H]1CN([C@H](C)CO)C(=O)c2cc(-c3ccc(F)cc3)cnc2O[C@H]1CN(C)C(=O)c1ccc(F)cc1	inconclusive: 44.7 µM [inhibitor, partial curve, poor fit]	
O=C(NNS(=O)(=O)c1ccc(Cl)cc1Cl)c1cc2ncc(C(F)(F)F)cc2s1	inconclusive: 112 µM [inhibitor, single point]	
C=CCc1cc(C)ccc1OCC(O)CN1CCN(c2ccccc2)CC1 (centres undefined)	inconclusive: 1.58 µM [inhibitor, full curve]	
CCOC(=O)CC1(C)c2nc(NC(C)=O)sc2Cc2sc(NC(C)=O)nc21	inconclusive: 79.4 µM [inhibitor, partial curve, poor fit]	
CCN1C(=O)CCc2cc(NS(=O)(=O)Cc3ccccc3)ccc21	inconclusive: 44.7 µM [inhibitor, partial curve, poor fit]	
CCC1Oc2ccc(NC(=O)C3CCCC3)cc2CN(Cc2ccc(F)cc2)C1=O (centres undefined)	inconclusive: 28.2 µM [inhibitor, single point]	

Structure (SMILES)	Potency	activity change, negative = inhibition
O=C(COC(=O)c1cc2c(s1)CCC2)Nc1ccc(F)cc1	inconclusive: 50.1 µM [inhibitor, partial curve, poor fit]	
CNc1c(NC(=O)NCc2ccccc2)c(=O)oc2ccccc12	inconclusive: 141 µM [inhibitor, partial curve, poor fit]	
COc1ccc(NC(=O)[C@@H]2C[C@H](c3ccc(F)cc3)N(Cc3ccccc3Cl)C2)cn1	inconclusive: 56.2 µM [inhibitor, partial curve]	
Cc1ccc(NS(=O)(=O)c2ccc(C(=O)N3CCN(S(=O)(=O)c4ccccc4)CC3)cc2)cc1	inconclusive: 35.5 µM [inhibitor, partial curve, poor fit]	
COc1ccc(OC)c(C2CC(=O)Nc3c2c(=O)[nH]c2nc4ccccc4n32)c1 (centres undefined)	inconclusive: 28.2 µM [inhibitor, partial curve, poor fit]	
COc1cc(OC)cc(-c2c(-c3cccs3)c3cc(-c4ccc5c(c4)OCO5)ccc3n2C)c1	inconclusive: 141 µM [inhibitor, partial curve, poor fit]	
S=c1[nH]nc(-c2ccc(Cl)cc2Cl)n1-c1ccccc1	inconclusive: 17.8 µM [inhibitor, full curve]	
Cc1ccccc1-c1coc2cc(O)ccc2c1=O		inactive: 1.3%
CN(C)c1cccc2c1c(NS(=O)(=O)c1cn(C)cn1)nn2C	inconclusive: 17.8 µM [inhibitor, partial curve, poor fit]	
N/C(=N\OS(=O)(=O)c1ccccc1)c1ccncc1		inactive: -82.3%
CC1(C(=O)NS(=O)(=O)Cc2ccccc2)CCN1C(=O)Cc1ccc(-c2ccccc2)cc1 (centres undefined)	inconclusive: 44.7 µM [inhibitor, partial curve, poor fit]	
CC(C)(C)NCC(O)COc1ccccc1C1CCCC1 (centres undefined)		inactive: -2.74%
C=CCOc1cccc(CNCc2ccncc2)c1	inconclusive: 31.6 µM [inhibitor, partial curve, poor fit]	
O=C(O)C1=NOC2CN(C(=O)C3CCCCC3)CC12 (centres undefined)	inconclusive: 10 µM [inhibitor, full curve, poor fit]	
CCCC(NC(=S)NCC1CCCO1)C12CC3CC(CC(C3)C1)C2 (centres undefined)	active: 39.8 µM	
COc1ccc(-c2cn3c(n2)N(C(=O)Cn2ccnc2)CCC3)cc1	inconclusive: 10 µM [inhibitor, partial curve, poor fit]	
CCCOc1ccc(C(=O)N2CCC(c3nc4ccccc4s3)CC2)cc1		inactive: -26.6%
Cc1nn(Cc2ccc(Cl)cc2Cl)c(C)c1NC(=O)C1C2CCC(O2)C1C(=O)O (centres undefined)	inconclusive: 20 µM [inhibitor, partial curve, poor fit]	
Cc1ccc(C(=O)Nc2ccc3c(N4CCCCC4)ncnc3c2)s1		inactive: 0.475%
CCCCNc1oc(-c2ccc(OC)cc2)nc1S(=O)(=O)c1ccccc1	inconclusive: 35.5 µM [inhibitor, partial curve, poor fit]	
CCOC(=O)C1=C(CS(=O)(=O)c2ccc(F)cc2)NC(=O)NC1c1cc(OC)c(O)c(OC)c1 (centres undefined)	inconclusive: 2.82 µM [inhibitor, full curve, poor fit]	
COc1cccc(C(=O)Nc2c(C(=O)N3CCN(Cc4ccccc4)CC3)oc3ccccc23)c1	inconclusive: 100 µM [inhibitor, single point]	
CCN(CC)S(=O)(=O)c1cccc(NC(=O)c2ccc(C#N)cc2)c1		inactive: -19.7%

Four compounds drawn at random from the list so far, as already listed:
Structure (SMILES)	Potency	activity change, negative = inhibition
Cc1nn(Cc2ccc(Cl)cc2Cl)c(C)c1NC(=O)C1C2CCC(O2)C1C(=O)O (centres undefined)	inconclusive: 20 µM [inhibitor, partial curve, poor fit]	
COc1ccc(OC)c(C2CC(=O)Nc3c2c(=O)[nH]c2nc4ccccc4n32)c1 (centres undefined)	inconclusive: 28.2 µM [inhibitor, partial curve, poor fit]	
O=C(COC(=O)c1cc2c(s1)CCC2)Nc1ccc(F)cc1	inconclusive: 50.1 µM [inhibitor, partial curve, poor fit]	
COc1cccc(C(=O)Nc2c(C(=O)N3CCN(Cc4ccccc4)CC3)oc3ccccc23)c1	inconclusive: 100 µM [inhibitor, single point]	

Carrying on:

Structure (SMILES)	Potency	activity change, negative = inhibition
COCCNCCCCOc1ccccc1-c1ccccc1	inconclusive: 0.199 µM [inhibitor, full curve, poor fit]	
C[C@@H]1C(NC(=O)c2ccccc2)CC2CC1C2(C)C (some centres undefined)	inconclusive: 0.112 µM [inhibitor, full curve, poor fit]	
CC(=O)c1cccc(NC(=O)CCN2C(=O)C3CC=CCC3C2=O)c1 (centres undefined)		inactive: -13.2%
CC(=O)CCC(=O)CNC(=O)CC[C@H]1O[C@@H](n2ccc(=O)[nH]c2=O)[C@H](O)[C@@H]1O	inconclusive: 35.5 µM [inhibitor, partial curve, poor fit]	
CCc1ccccc1N/N=C(/c1ccccc1)c1ccc(Br)cc1	active: 7.94 µM	
COc1ccc(CCNC(=O)c2sc(NC3CC3)nc2C)cc1		inactive: 12.1%
Cc1cc(C)c2c(CN3CCN(c4ccccc4)CC3)cc(=O)oc2c1	inactive	
O=[N+]([O-])c1ccc(/C=N\NS(=O)(=O)c2ccc(F)cc2)o1		inactive: -89.3%
N#Cc1c(N2CCN(C(=O)c3ccco3)CC2)nc(-c2ccccc2)c2c1CCCC2	inconclusive: 44.7 µM [inhibitor, partial curve]	
CCN(CC)CCn1c(=N)n(CC(=O)c2ccc(Br)s2)c2ccccc21	inconclusive: 35.5 µM [inhibitor, single point]	
CCn1c(C)nc2cc(C(=O)N/N=C/c3ccc(O)c(O)c3O)ccc21		inactive: -20.9%
CC(C)(C)OC(=O)N1CCC(c2c(C(=O)NCCN3CCOCC3)cnn2-c2cccc(Cl)c2)CC1		inactive: 0.841%
COc1ccc(C2=NS(=O)(=O)N(C)C(C(=O)N3CCc4ccccc4C3)=C2)cc1OC		inactive: 143%
CNC(=O)c1cc(S(=O)(=O)NC2CCCCCC2)ccc1C		inactive: 0%
O=C(COC(=O)c1ccco1)c1ccc(Cl)cc1	inconclusive: 112 µM [inhibitor, single point]	
O=C(O)CCN1C(=O)/C(=C2\C(=O)N(Cc3ccccc3Cl)c3ccccc32)SC1=S		inactive: -86.3%
Cn1nnnc1SCC(=O)N1N=C(c2cc3ccccc3o2)CC1c1ccco1 (centres undefined)	inconclusive: 31.6 µM [inhibitor, partial curve]	
c1ccc(COc2ncnc3c2ncn3CCCNCc2ccc3c(c2)OCO3)cc1	inconclusive: 39.8 µM [inhibitor, partial curve]	
Cc1cc(NC(=O)C2CCCCC2)ccc1NC(=O)c1ccccc1Cl		inactive: -17.5%
Cc1cc(C)c2c(=O)[nH]c(SC(C)C(=O)Nc3ccc(Cl)cc3F)nc2n1 (centres undefined)	inconclusive: 56.2 µM [inhibitor, partial curve, poor fit]	
COCCn1c(CN2C(=O)COc3ccccc32)nnc1C1CC(N)C1 (centres undefined)		inactive: 26.2%
CN(CC(=O)Nc1ccccc1Cl)C(=O)c1cccc(-n2cccc2)c1		inactive: -1.47%
C[C@]12CCC3C(CC[C@H]4CC(O)CC[C@]34C)C1CC/C2=N/NC(=O)c1ccncc1 (some centres undefined)		inactive: 10.5%
